These results are taken from article PMC10163288.

This is one part of the list.

B1: il2ra_site2_2erj_normal_mot_ca9fcc9ace360711d783d1260e4fbff1_0001_1_af2_000000007_0001_15_32_H_._HHH_b2_05327_af2_0001_0000100002_0000001_0 (protein)
chain: SSSSDEALRRLFRLAVEILHALARGDPEEFEELVKELRELAKELNNREVEKLLEHLERLARSSSS
B2: il2ra_site2_2erj_normal_mot_HHH_b2_02572_000000008_0001_42_59_H_._HHH_b1_00676_0001_0000600027_0000001_0 (protein)
chain: SSSSSDEQEIFERVSELLLRLYHASEEEAEELLEEARRLAEENNSPELERYVEFARRDFSSSSSS
B3: il2ra_site1_2b5i_sap_15_mot_HHH_b1_08426_af2_000000046_0001_39_52_H_._1e759223bb6b7646c131a6179565dc37_0001_0001_0000300037_0000001_0_0001_af2pred_dldesign_0_af … (protein)
chain: SSSSSPEREKIKKLIEEAKEAKAAGKRREALELLEEAYKLASELGDEELEAEVEALAKEVSSSSS
B4: il2ra_site1_3nfp_normal_mot_HHH_b1_00042_af2_000000196_0001_42_57_H_._HHH_b1_04846_0001_0000300015_0000001_0 (protein)
chain: SSSSTEELEELKKLAEELWRLLREGDEEEIRRLLEEIEKLAREVNDEVAEWLVEQVEKLKSSSSS
B5: il2ra_site1_3nfp_normal_mot_891b8491a18eb46c9ad5c1702b87f9cc_0001_000000120_0001_18_33_H_._a977d6a2cfab3d20b8a840e59b1ed461_0001_1_0001_0000100007_0000001_0 (protein)
chain: DEELERVKELLEKLGDPQARALVKFLEQAFKSANVPPEYVLKALEEALEKLGDPEAVRLLEEAIK
B6: il2ra_site2_2erj_normal_mot_HHH_b1_04373_af2_000000118_0001_18_33_H_._HHH_b2_00397_0001_0000200023_0000001_0 (protein)
chain: SSSSDEIEEEARQILEEAEEAHEQGDLERTYELAVEALRVASEGNDEEAQRLVAEVAEKLSSSSS
B7: il2ra_site1_1z92_normal_mot_HHH_b2_02540_000000162_0001_1_16_H_._HHH_b1_06172_0001_0000500029_0000001_0 (protein)
chain: SSSSSKYEKAIRWALELLEAALKTESERLFEFLVEFIRLFVKQNNNEELQEELERLEEEFRSSSS
B8: il2ra_site1_1z92_normal_mot_203a44625a3a2ba431098544127a80a6_0001_af2_000000214_0001_15_33_H_._HHH_b1_01554_af2_0001_0000300017_0000001_0_af2pred_0001_af2pred_1 (protein)
chain: SSSSSSERFARHVVEILVKLAHLSEEQEEELRELAEELVKRGYSDREIAQILNKLAAELESSSSS
B9: il2ra_site2_3nfp_normal_mot_HHH_b1_04032_000000208_0001_43_56_H_._7ecccec7bd2d3ab74121640ad5a1fb94_0001_0001_0000600018_0000001_0 (protein)
chain: DAEFIILAAESAHKSPLARKLLEAHIEVLKQHNPERAELVQEVLELIEEGNPERAKEVAEEVEKR
B10: il2ra_site2_3nfp_normal_mot_HHH_b1_07447_af2_000000181_0001_1_21_H_._HHH_b2_03168_0001_0000100005_0000001_0 (protein)
chain: SSSSDQLELAVEFVAAAARLRGNPELAEELERLIEEYKQEGDPRIKREIIELLDEAFQLLQSSSS
B11: il2ra_site1_3nfp_sap_7_mot_d8099cd8ef6a59b9c03de2010570d688_0001_af2_000000259_0001_37_51_H_._HHH_b1_03897_0001_0000200003_0000001_0_0001_af2pred_dldesign_0_af2 … (protein)
chain: RERIKRAVRAAKKKKSPALLQYALDLLYEHTKDPEVKEVKAEFEKLYHVDPEAAMKLALDYLEKL
B12: il2ra_site2_3nfp_sap_29_mot_HHH_b1_06431_000000233_0001_39_56_H_._0e529dd47276c7fc43eae82927e5780b_0001_0001_0000100001_0000001_0_0001 (protein)
chain: SSSSSSEEEEVRELIEEAEETSKRDPEKARRILRRAALIAAEIRNHELFAEINELLEKLVSSSSS
B13: il2ra_site1_2b5i_normal_mot_HHH_b1_00095_000000042_0001_1_14_H_._HHH_b1_03323_0001_0000400015_0000001_0_af2pred_dldesign_0_af2pred (protein)
chain: SSSSGPRLEALKELERILKELEELKDEEAYEKAEELAEEFLRTQDLRYLEEARKLLEEAKSSSSS
B14: il2ra_site1_3nfp_sap_15_mot_HHH_b1_04144_000000286_0001_1_18_H_._cbfbdadfdfee4acf7bbafee7633b20e7_0001_1_af2_0001_0000900054_0000001_0_0001_af2pred_0001_af2pred … (protein)
chain: SAAEIYLERAVKLNSERALRKFIEDLLRYFGNPEEVEEFLEKLVKELGLPPEVLERLQELLEELT
B15: il2ra_site2_2erj_normal_mot_HHH_b1_02968_000000142_0001_22_39_H_._HHH_b2_08255_0001_0000300010_0000001_0 (protein)
chain: SSSSSSSAEEEIEELLERAEQISDLREVYKLAVEALRLASEARDPRLQELIREVLKRLSSSSSSS
B16: il2ra_site1_2b5i_sap_9_mot_HHH_b2_03607_af2_000000052_0001_1_19_H_._HHH_b2_04098_af2_0001_0000400034_0000001_0_0001_af2pred_0001_af2pred_1 (protein)
chain: SSSSDRFERVLELWREASKLFREGNPEEAREVLEEALELAEQAGDERARKDVEFLLEFLKSSSSS
B17: il2ra_site2_2erj_sap_31_mot_HHH_b1_07829_000000169_0001_1_18_H_._HHH_b1_01129_af2_0001_0000100004_0000001_0_0001_af2pred_0001_1_af2pred_swapped (protein)
chain: SSSSSDEEIRERVEELLEEAERIKDPKEALKLLQEAAQLALELDDPELIELVLEVARRASSSSSS
B18: il2ra_site1_2b5i_normal_mot_HHH_b1_02271_000000068_0001_1_16_H_._HHH_b1_08003_0001_0001400040_0000001_0_af2pred_dldesign_0_af2pred (protein)
chain: SSSSSDRRARLEAALAEAERLAAAGKRREALKRLDELKKEADELDDDELADRIEALAKEISSSSS
B19: il2ra_site2_2erj_normal_mot_HHH_b2_05722_000000033_0001_22_38_H_._HHH_b2_06475_0001_0000200014_0000001_0_af2pred_0001_af2pred (protein)
chain: SSSSSEAEELFEEAEELVKRGDYEEAALVALLALEAAREEGDEELERKIQELLEELARVLFSSSS
B20: il2ra_site2_2erj_sap_20_mot_HHH_b2_07014_af2_000000149_0001_41_55_H_._HHH_b1_01587_af2_0001_0000100009_0000001_1_0001 (protein)
chain: SSSSDELERLYELAVRILHLLSNGDPEEARELIEEAQELAERLQSENAREILERLEEEARSSSSS
B21: il2ra_site1_3nfp_normal_mot_HHH_b1_03753_af2_000000088_0001_41_54_H_._HHH_b2_08116_af2_0001_0000300023_0000001_0_af2pred_0001_af2pred (protein)
chain: SSSSSDVRKEAVEILRRALELARQGDHEEAEKLLEEALELAKEGNNEQLQRKIEHDLKSASSSSS
B22: il2ra_site1_1z92_normal_mot_3d621733409fa4d2bc95fa1761ba6d8e_0001_af2_000000005_0001_1_12_H_._HHH_b1_00507_af2_0001_0000200017_0000001_0_af2pred_0001_af2pred_1 (protein)
chain: SSSSNAWERTLELAEEALKLIDDPELRREAEELIEELEEALRRGDTKRARELLEEINKILSSSSS
B23: il2ra_site1_1z92_normal_mot_HHH_b1_01245_000000029_0001_23_39_H_._HHH_b2_03879_0001_0000200020_0000001_0 (protein)
chain: SSSSDLELLREADRIVLELVEEFGLSDEQARELARLAIRLAARGVSPEEIEEILRRLAEELSSSS
B24: il2ra_site2_2erj_sap_31_mot_HHH_b1_03572_af2_000000146_0001_41_56_H_._HHH_b1_02912_af2_0001_0000200004_0000001_0_0001 (protein)
chain: SSSSSDKELWERVAELLAEAAHIDDEEEARRVVEEAERLAEENNDETLLRYVEMVLEHLKSSSSS

The experiment concerns the target il2ra, P01589. Put plainly: yeast display titration.
For B1, the “apparent Kd” value is “inactive: no binding seen”. With B2, the “apparent Kd” value was “inactive: no binding seen”. For B3 the value was “inactive: no binding seen”.

Take B4: the “apparent Kd” value is “inactive: no binding seen”. As for B5, the entry is “inactive: no binding seen”; as for B6, “inactive: no binding seen”.

With B7, the “apparent Kd” value was “inactive: no binding seen”. In the case of B8, the “apparent Kd” value is “inactive: no binding seen”.

With B9, the “apparent Kd” value is “inactive: no binding seen”. On to B10, for which the “apparent Kd” value is “inactive: no binding seen”. As for B11, the entry is “inactive: no binding seen”. On to B12, for which the “apparent Kd” value is “inactive: no binding seen”. As for B13, the entry is “inactive: no binding seen”; as for B14, “inactive: no binding seen”; as for B15, “inactive: no binding seen”. Consider B16, for which the “apparent Kd” value was “inactive: no binding seen”.

For the molecule B17, the “apparent Kd” value is “inactive: no binding seen”. Regarding B18, the “apparent Kd” value was “inactive: no binding seen”. For B19 the value was “inactive: no binding seen”; for B20, “inactive: no binding seen”; for B21, “inactive: no binding seen”. For the molecule B22, the “apparent Kd” value is “inactive: no binding seen”.

Take B23: the “apparent Kd” value is “inactive: no binding seen”. As for B24, the entry is “inactive: no binding seen”.
